{"source": "patent US20080241943A1", "about": "“Subnanomolar Precipitator of Thiophilic Metals” (The Scripps Research Institute, priority 2004, published 2008)", "origin": "cited, not measured here", "details": "cited from earlier work", "note": "At least one structure is not confirmed: it was looked up by name or label, or the drawing left a doubt.", "data": [{"smiles": "CN(C)c1ccc2c(-c3ccc(N(CC(=O)[O-])CC(=O)[O-])c(OCCOc4cc([N+](=O)[O-])ccc4N(CC(=O)[O-])CC(=O)[O-])c3)c3ccc(=[N+](C)C)cc-3oc2c1.[K+].[K+].[K+]", "note": "[Rhod-5N]", "values": [{"measurement": "selection for Hg^2+ over Cu^2+", "result": "3-5 fold"}]}]}
